Assay results taken from paper PMC11548748.
Where two headings read alike, the source gives them in different places. Results are given in words; binding and its absence hold for the method and conditions named. In cells and extracts the contact can be indirect. Some binding calls cover weakened binding; strength is not graded here. For part of these data: Where a sequence is shown, tags or fusion partners need not be part of it.

Protein sequences, listed by entry. Tags and fused reporters are not part of them.
UniProt O08586: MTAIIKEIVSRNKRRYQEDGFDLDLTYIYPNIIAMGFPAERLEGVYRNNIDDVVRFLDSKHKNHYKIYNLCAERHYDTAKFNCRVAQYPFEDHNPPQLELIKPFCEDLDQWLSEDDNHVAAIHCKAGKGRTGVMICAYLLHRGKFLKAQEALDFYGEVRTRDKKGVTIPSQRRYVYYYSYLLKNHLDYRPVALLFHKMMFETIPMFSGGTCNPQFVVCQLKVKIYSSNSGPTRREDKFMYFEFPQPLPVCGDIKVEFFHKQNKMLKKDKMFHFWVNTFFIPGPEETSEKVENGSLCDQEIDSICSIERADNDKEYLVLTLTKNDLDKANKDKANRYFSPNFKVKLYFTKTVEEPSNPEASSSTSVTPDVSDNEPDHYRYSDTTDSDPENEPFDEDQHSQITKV
UniProt P29351: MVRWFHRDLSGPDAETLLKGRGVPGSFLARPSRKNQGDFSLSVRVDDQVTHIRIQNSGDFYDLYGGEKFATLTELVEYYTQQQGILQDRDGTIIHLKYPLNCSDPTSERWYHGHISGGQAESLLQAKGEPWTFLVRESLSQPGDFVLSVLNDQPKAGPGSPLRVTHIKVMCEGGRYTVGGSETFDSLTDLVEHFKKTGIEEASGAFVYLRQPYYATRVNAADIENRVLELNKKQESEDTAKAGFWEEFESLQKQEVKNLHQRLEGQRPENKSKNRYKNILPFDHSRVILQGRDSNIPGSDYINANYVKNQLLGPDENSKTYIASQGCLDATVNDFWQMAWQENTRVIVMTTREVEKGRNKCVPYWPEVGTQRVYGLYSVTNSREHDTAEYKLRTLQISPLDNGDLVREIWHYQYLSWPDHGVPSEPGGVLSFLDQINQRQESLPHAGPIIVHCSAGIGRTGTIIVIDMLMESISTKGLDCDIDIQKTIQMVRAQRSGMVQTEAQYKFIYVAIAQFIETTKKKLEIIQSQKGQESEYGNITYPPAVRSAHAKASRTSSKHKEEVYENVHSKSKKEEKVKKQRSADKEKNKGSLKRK

Assays:
[1] = target: valosin containing protein (VCP)/p97 (mouse (endogenous in BMDMs)) (UniProt Q01853); assay: co-IP; endogenous proteins in lysates of mouse BMDMs (WT or VCP-deficient), unstimulated or stimulated with ZymD for the indicated times; lysis in 50 mM Tris-HCl pH 7.4, 150 mM NaCl, 1% Triton X-100, 1 mM EDTA; IP with 2 ug antibody and protein A/G Plus-Agarose, 4°C, 12 h; immunoblot
Flag-tagged VCP (mouse) [2] = target: Flag-tagged VCP (mouse) (UniProt Q01853); assay: co-IP; tagged proteins co-transfected into HEK293T cells (36 h in the legends, 48 h in the text), with or without ZymD; IP by the tag (FLAG-M2 beads, anti-HA beads, anti-MYC, anti-V5); lysis in 50 mM Tris-HCl pH 7.4, 150 mM NaCl, 1% Triton X-100, 1 mM EDTA; immunoblot
[3] = target: valosin containing protein (VCP)/p97 (mouse (endogenous in BMDMs)) (UniProt Q01853); assay: co-IP; endogenous proteins in lysates of mouse BMDMs (WT or VCP-deficient), unstimulated or stimulated with ZymD for the indicated times; lysis in 50 mM Tris-HCl pH 7.4, 150 mM NaCl, 1% Triton X-100, 1 mM EDTA; IP with 2 ug antibody and protein A/G Plus-Agarose, 4°C, 12 h; immunoblot; remark: listed apart in the source
Flag-tagged VCP (mouse) [4] = target: Flag-tagged VCP (mouse) (UniProt Q01853); assay: co-IP; tagged proteins co-transfected into HEK293T cells (36 h in the legends, 48 h in the text), with or without ZymD; IP by the tag (FLAG-M2 beads, anti-HA beads, anti-MYC, anti-V5); lysis in 50 mM Tris-HCl pH 7.4, 150 mM NaCl, 1% Triton X-100, 1 mM EDTA; immunoblot; remark: listed apart in the source

binding [1] | binding [3] | Molecule | other results
 | binds | SHIP1 (enzyme, UniProt Q9ES52 1-1191) MPAMVPGWNHGNITRSKAEELLSRAGKDGSFLVRASESIPRAYALCVLFRNCVYTYRILPNEDDKFTVQASEGVPMRFFTKLDQLIDFYKKENMGLVTHLQYPVPLEEEDAIDEAEEDTVESVMSPPELPPRNIPMSAGPSEAKDLPLATENPRAPEVTRLSLSETLFQRLQSMDTSGLPEEHLKAIQDYLSTQLLLDSDFLKTGSSNLPHLKKLMSLLCKELHGEVIRTLPSLESLQRLFDQQLSPGLRPRPQVPGEASPITMVAKLSQLTSLLSSIEDKVKSLLHEGSESTNRRSLIPPVTFEVKSESLGIPQKMHLKVDVESGKLIVKKSKDGSEDKFYSHKKILQLIKSQKFLNKLVILVETEKEKILRKEYVFADSKKREGFCQLLQQMKNKHSEQPEPDMITIFIGTWNMGNAPPPKKITSWFLSKGQGKTRDDSADYIPHDIYVIGTQEDPLGEKEWLELLRHSLQEVTSMTFKTVAIHTLWNIRIVVLAKPEHENRISHICTDNVKTGIANTLGNKGAVGVSFMFNGTSLGFVNSHLTSGSEKKLRRNQNYMNILRFLALGDKKLSPFNITHRFTHLFWLGDLNYRVELPTWEAEAIIQKIKQQQYSDLLAHDQLLLERKDQKVFLHFEEEEITFAPTYRFERLTRDKYAYTKQKATGMKYNLPSWCDRVLWKSYPLVHVVCQSYGSTSDIMTSDHSPVFATFEAGVTSQFVSKNGPGTVDSQGQIEFLACYATLKTKSQTKFYLEFHSSCLESFVKSQEGENEEGSEGELVVRFGETLPKLKPIISDPEYLLDQHILISIKSSDSDESYGEGCIALRLETTEAQHPIYTPLTHHGEMTGHFRGEIKLQTSQGKMREKLYDFVKTERDESSGMKCLKNLTSHDPMRQWEPSGRVPACGVSSLNEMINPNYIGMGPFGQPLHGKSTLSPDQQLTAWSYDQLPKDSSLGPGRGEGPPTPPSQPPLSPKKFSSSTANRGPCPRVQEARPGDLGKVEALLQEDLLLTKPEMFENPLYGSVSSFPKLVPRKEQESPKMLRKEPPPCPDPGISSPSIVLPKAQEVESVKGTSKQAPVPVLGPTPRIRSFTCSSSAEGRMTSGDKSQGKPKASASSQAPVPVKRPVKPSRSEMSQQTTPIPAPRPPLPVKSPAVLQLQHSKGRDYRDNTELPHHGKHRQEEGLLGRTAMQ | 
 | binds | Dectin-1 (also known as CLEC7A) (receptor, UniProt Q6QLQ4 1-244) MKYHSHIENLDEDGYTQLDFSTQDIHKRPRGSEKGSQAPSSPWRPIAVGLGILCFVVVVVAAVLGALGEYGHNSGRNPEEKDNFLSRNKENHKPTESSLDEKVAPSKASQTTGGFSQPCLPNWIMHGKSCYLFSFSGNSWYGSKRHCSQLGAHLLKIDNSKEFEFIESQTSSHRINAFWIGLSRNQSEGPWFWEDGSAFFPNSFQVRNTAPQESLLHNCVWIHGSEVYNQICNTSSYSICEKEL | 

More lines, now with the values behind:

Molecule | binding [1] | binding [3] | other results
PTEN (from UniProt O08586 1-403) (enzyme) | binds |  | 
V5-SHP-1 (from UniProt P29351 1-595) (enzyme) |  |  | binding (Flag-tagged VCP (mouse) [2]): binds
tyrosine phosphatase SHP-1 (from UniProt P29351 1-595) (enzyme) | binds |  | 
HA-Dectin-1 (receptor, UniProt Q6QLQ4 1-244) MKYHSHIENLDEDGYTQLDFSTQDIHKRPRGSEKGSQAPSSPWRPIAVGLGILCFVVVVVAAVLGALGEYGHNSGRNPEEKDNFLSRNKENHKPTESSLDEKVAPSKASQTTGGFSQPCLPNWIMHGKSCYLFSFSGNSWYGSKRHCSQLGAHLLKIDNSKEFEFIESQTSSHRINAFWIGLSRNQSEGPWFWEDGSAFFPNSFQVRNTAPQESLLHNCVWIHGSEVYNQICNTSSYSICEKEL |  |  | binding (Flag-tagged VCP (mouse) [4]): binds
